Measured values as given in the supplement of paper PMC10849652.
The other results are listed elsewhere or left out.

By UniProt entry, the sequences of proteins in these tests, tags left out. Where a name states a change or a piece, a line headed by the entry shows the natural chain unless it says otherwise.
UniProt Q5T8I3: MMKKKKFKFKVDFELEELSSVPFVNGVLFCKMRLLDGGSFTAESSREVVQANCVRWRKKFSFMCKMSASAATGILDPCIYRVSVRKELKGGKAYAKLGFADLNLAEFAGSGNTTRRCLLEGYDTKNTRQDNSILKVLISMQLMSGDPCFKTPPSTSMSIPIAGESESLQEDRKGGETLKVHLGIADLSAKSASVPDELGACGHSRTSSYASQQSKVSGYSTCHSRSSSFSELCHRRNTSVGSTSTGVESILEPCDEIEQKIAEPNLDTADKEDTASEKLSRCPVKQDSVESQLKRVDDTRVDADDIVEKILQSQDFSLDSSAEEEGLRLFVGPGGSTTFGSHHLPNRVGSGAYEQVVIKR
UniProt Q9Y2C4: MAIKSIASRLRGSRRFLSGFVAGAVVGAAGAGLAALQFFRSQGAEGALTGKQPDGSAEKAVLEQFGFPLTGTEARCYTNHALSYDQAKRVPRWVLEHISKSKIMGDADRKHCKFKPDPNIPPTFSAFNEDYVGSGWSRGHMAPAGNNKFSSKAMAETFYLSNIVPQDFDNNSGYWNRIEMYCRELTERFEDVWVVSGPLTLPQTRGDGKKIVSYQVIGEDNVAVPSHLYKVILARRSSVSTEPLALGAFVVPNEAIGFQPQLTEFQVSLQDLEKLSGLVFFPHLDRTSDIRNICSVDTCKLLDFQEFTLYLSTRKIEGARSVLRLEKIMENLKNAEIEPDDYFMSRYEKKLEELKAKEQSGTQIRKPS
UniProt Q6P1L5: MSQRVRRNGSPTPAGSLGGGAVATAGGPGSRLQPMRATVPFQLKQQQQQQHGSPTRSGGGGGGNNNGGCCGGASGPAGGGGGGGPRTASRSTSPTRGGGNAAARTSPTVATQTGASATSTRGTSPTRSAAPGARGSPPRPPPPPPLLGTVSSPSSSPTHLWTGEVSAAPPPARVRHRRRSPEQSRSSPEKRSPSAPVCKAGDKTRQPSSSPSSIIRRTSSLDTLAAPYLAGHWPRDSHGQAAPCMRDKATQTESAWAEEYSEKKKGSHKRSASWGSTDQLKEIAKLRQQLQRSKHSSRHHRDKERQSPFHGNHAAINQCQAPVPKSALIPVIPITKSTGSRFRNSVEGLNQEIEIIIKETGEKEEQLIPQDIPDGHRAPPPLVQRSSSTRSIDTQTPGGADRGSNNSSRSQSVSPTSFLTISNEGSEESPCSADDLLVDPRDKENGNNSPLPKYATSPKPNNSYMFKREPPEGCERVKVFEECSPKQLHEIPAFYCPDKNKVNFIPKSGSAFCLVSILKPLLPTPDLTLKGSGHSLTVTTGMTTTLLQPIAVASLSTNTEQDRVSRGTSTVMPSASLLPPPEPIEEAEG
UniProt Q7Z309: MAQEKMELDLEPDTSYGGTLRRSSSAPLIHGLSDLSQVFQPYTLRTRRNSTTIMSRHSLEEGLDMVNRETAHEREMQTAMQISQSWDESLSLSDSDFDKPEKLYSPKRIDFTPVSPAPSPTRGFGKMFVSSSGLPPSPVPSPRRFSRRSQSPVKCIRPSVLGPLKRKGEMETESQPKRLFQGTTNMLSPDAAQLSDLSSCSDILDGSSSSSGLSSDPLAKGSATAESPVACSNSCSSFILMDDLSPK
UniProt Q9NYF3: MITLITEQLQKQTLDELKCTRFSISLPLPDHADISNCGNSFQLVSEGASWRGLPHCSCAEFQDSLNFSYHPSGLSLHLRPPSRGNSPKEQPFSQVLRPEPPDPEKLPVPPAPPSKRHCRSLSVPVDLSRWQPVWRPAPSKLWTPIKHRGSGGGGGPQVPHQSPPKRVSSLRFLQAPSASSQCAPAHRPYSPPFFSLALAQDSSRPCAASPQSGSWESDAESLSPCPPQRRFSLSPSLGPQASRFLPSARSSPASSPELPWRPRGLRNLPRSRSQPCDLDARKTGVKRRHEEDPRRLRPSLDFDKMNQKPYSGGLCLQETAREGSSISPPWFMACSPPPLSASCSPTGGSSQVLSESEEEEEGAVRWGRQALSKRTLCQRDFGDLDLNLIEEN

How the values were obtained:
Experiment in all cases: log2 fold change, soluble protein after heating vs DMSO (PISA); higher = thermal stabilisation; K562 lysate, 10 uM; active = over 0.2 and 3.5 SD of the protein, either way, in both replicates (recomputed)
erlotinib = compound: C#Cc1cccc(Nc2ncnc3cc(OCCOC)c(OCCOC)cc23)c1 [erlotinib]
How it was run: (§1)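 Pellets of K562 cells were dounce-homogenised in PBS pH 7.4 with 1 mM MgCl2, and the crude extract was held at 1 mg/mL protein for a 30 min treatment with 10 μM compound. Aliquots were heated for 3 min over 48°C-58°C and pooled before NP-40 was added to 0.5% at 4°C. The supernatant from 21,000xg for 90 min was quantified by TMTpro 16plex LC-MS/MS with channel sums equalised. Values are reported from duplicates as log-two fold change in thermal stability relative to solvent controls.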

[1] = compound: C/C(=N\NC(=O)C1=CC(=CC=C1)S(=O)(=O)N2CCOCC2)/C3=C(C=CC(=C3)Cl)O
How it was run: as §1

[2] = compound: C1=CC(=CC=C1C2=NC3=C(N2)C=C(C=C3)C(=O)N)OC4=CC=C(C=C4)Cl
How it was run: as §1

[3] = compound: C1=CC2=C(C=CC(=C2)/C=C\3/C(=O)NC(=NCC4=CC=CS4)S3)N=C1
How it was run: as §1

[4] = compound: C1=CC2=NC=CN=C2C=C1/C=C/3\C(=O)NC(=O)S3
How it was run: as §1

[5] = compound: C1=CC=C2C(=C1)C3=NNC4=CC=CC(=C43)C2=O
How it was run: as §1

[6] = compound: C1CCN(C1)C(=O)NC2=CC=CC(=C2)NC3=NC=C(C(=N3)NCCC4=CN=CN4)Br
How it was run: as §1

[7] = compound: C1CN(CCC1(CC2=CC=C(C=C2)Cl)N)C3=NC=NC4=C3C=CN4
How it was run: as §1

ibrutinib = compound: C=CC(=O)N1CCC[C@@H](n2nc(-c3ccc(Oc4ccccc4)cc3)c3c(N)ncnc32)C1 [ibrutinib]
How it was run: as §1

[8] = compound: CC(=O)c1cnc2ccc(-c3cc(Cl)c(O)c(Cl)c3)nc2c1N[C@H]1CC[C@H](CN(C)C)CC1
How it was run: as §1

[9] = compound: CC(C)C1=C2N=C(C=C(N2N=C1)NCC3=CC=CC=C3)NCCCCCCN
How it was run: as §1

[10] = compound: CC1=C(C=C(C=C1)NC(=O)C2=CC(=CC=C2)C(C)(C)C#N)NC3=CC4=C(C=C3)N=CN(C4=O)C
How it was run: as §1

[11] = compound: CC1=CC=C(C=C1)SC2=C3C=C(SC3=CN=C2)C(=O)N
How it was run: as §1

[12] = compound: C1=CC=C(C=C1)C2=NC(=C(N2)C3=CC=NC=C3)C4=CC(=C(C=C4)Cl)O
How it was run: as §1

IRAK-1-4 Inhibitor I = compound: C1COCCN1CCN2C3=CC=CC=C3N=C2NC(=O)C4=CC(=CC=C4)[N+](=O)[O-] [IRAK-1-4 Inhibitor I]
How it was run: as §1

ralimetinib = compound: CC(C)(C)Cn1c(N)nc2ccc(-c3[nH]c(C(C)(C)C)nc3-c3ccc(F)cc3)nc21 [ralimetinib]
How it was run: as §1

[13] = compound: CC(C)(O)CC(=O)NCCn1ccc2ncnc(Nc3ccc(Oc4cccc(C(F)(F)F)c4)c(Cl)c3)c21
How it was run: as §1

[14] = compound: CC1=C(C(CC(=O)N1)C2=CC=C(C=C2)C(F)(F)F)C(=O)NC3=C(C=C4C(=C3)C=NN4)F
How it was run: as §1

[15] = compound: CC1=C(C2=C(C=C1)C(=O)C3=CC=CC=C3N2CCCN)C
How it was run: as §1

[16] = compound: CC1=C(C=C(C=C1)NC(=O)C2=CC(=CC=C2)N(C)C)NC(=O)C3=CC=C(C=C3)O
How it was run: as §1

Measured: log2 fold change

FAM102B (UniProt Q5T8I3)
inactive: erlotinib -0.158 | [1] -0.037 | [2] 0.196 | [3] -0.111 | [4] -0.165 | [5] 0.031 | [6] 0.039 | [7] -0.105 | ibrutinib -0.024 | [8] -0.027 | [9] -0.187 | [10] 0.048 | [11] 0.06

EXOG (UniProt Q9Y2C4)
inactive: erlotinib 0.03 | [1] -0.099 | [2] 0.174 | [3] 0.017 | [4] -0.082 | [12] 0.039 | [5] -0.03 | [6] -0.121 | [7] -0.003 | IRAK-1-4 Inhibitor I 0.067 | ibrutinib -0.146 | [8] -0.02 | ralimetinib 0.033 | [13] -0.142 | [9] -0.03 | [14] 0.046 | [15] -0.02 | [16] -0.077 | [11] -0.02

FAM117B (UniProt Q6P1L5)
inactive: erlotinib -0.13 | [1] -0.27 | [2] -0.021 | [3] 0.006 | [12] 0.187 | [5] -0.036 | IRAK-1-4 Inhibitor I 0.184 | [8] 0.024 | ralimetinib -0.047 | [13] -0.11 | [9] 0.222 | [14] 0.01 | [15] 0.001 | [10] 0.026 | [16] 0.112 | [11] 0.001

FAM122B isoform 2 (UniProt Q7Z309)
inactive: [12] 0.029 | IRAK-1-4 Inhibitor I 0.01 | ralimetinib -0.047 | [13] -0.119 | [16] 0.02

F2 (UniProt P00734)
inactive: [4] 0.069 | [12] 0.108 | [6] -0.005 | [7] -0.033 | IRAK-1-4 Inhibitor I 0.056 | ibrutinib 0.078 | [8] 0.009 | ralimetinib -0.049 | [13] 0.106 | [16] -0.234 | [11] -0.079

FAM53C (UniProt Q9NYF3)
inactive: erlotinib -0.052 | [2] 0.007 | [4] 0.11 | [12] -0.024 | [6] -0.008 | [7] 0.072 | IRAK-1-4 Inhibitor I 0.036 | ibrutinib 0.016 | [8] -0.074 | ralimetinib 0.004 | [13] 0.004 | [9] 0.004 | [14] 0.181 | [15] -0.022 | [10] -0.044 | [16] -0.012 | [11] 0.052
